Data: PubChem BioAssay AID504444 (National Center for Advancing Translational Sciences (NCATS), 2011)
The campaign covered roughly 360,000 compounds. About 7,500 (2.1%) were called active. The shares of active, inactive and inconclusive entries below differ from those in the screen. Calls come from the whole dose curve; as a rule, active = well fitted inhibition curve with a large enough effect; inconclusive = small, poorly fitted or top-dose-only effect, or effect the other way; inactive = flat fitted curve, though single readings scatter. A potency beside an inconclusive call is a rough fit, not a confirmed value.

assay: Nrf2 qHTS screen for inhibitors; settings: A549 ARE-Fluc reporter, luciferase luminescence, 18-24 h; activity change, negative = inhibition: at 46 µM (top of the series); note: nearly all actives have a fitted effect of over 60% in size
Method in brief: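 Quantitative HTS in A549 cells stably bearing an antioxidant response element-firefly luciferase construct. Inhibition of Nrf2-driven transcription was scored by luminescence after 18-24 h of compound exposure at 37 °C.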
% is set by controls: 0 for no effect and ±100 for the full control effect; potency is the fitted concentration of half-maximal effect.

Row | SMILES | Potency | activity change, negative = inhibition
1 | COc1ccc(-c2nc(-c3ccccc3)c(-c3cccs3)[nH]2)cc1OC | inconclusive: 25.9 µM [falling, single point] | –
2 | COc1cccc(NC(=O)C2CCN(Cc3cnn(-c4ccccc4)c3-n3cccc3)CC2)c1 | inconclusive: 23.1 µM [falling, partial curve, poor fit] | –
3 | Cc1nc(-c2ccncc2)nc(NCCNc2ccc(C(F)(F)F)cn2)c1Cl | inconclusive: 1.64 µM [falling, partial curve, poor fit] | –
4 | Cc1ccc(N2CCN(S(=O)(=O)c3nnc(NC(=O)c4cccc(F)c4)s3)CC2)cc1 | inconclusive: 23.1 µM [activator, partial curve, poor fit] | –
5 | CC(=O)Nc1ccc(OCC(O)CN2CCN(c3cccc(Cl)c3)CC2)cc1 (stereo not given) | inconclusive: 1.03 µM [falling, partial curve] | –
6 | COc1ccc(CN(C)C(=O)c2cc(S(=O)(=O)Nc3ccccc3F)ccc2C)c(OC)c1 | inconclusive: 23.1 µM [falling, partial curve, poor fit] | –
7 | COc1ccc(/C=C/C(=O)c2ccccn2)cc1 | inconclusive: 29.1 µM [activator, single point] | –
8 | Cc1cnn(-c2nc(-c3ccccc3)cc(-c3ccccc3)n2)c1 | inconclusive: 5.17 µM [falling, full curve, poor fit] | –
9 | O=C(Nc1cccc(S(=O)(=O)N2CCCCCC2)c1)C1CCN(C(=O)c2ccc(Cl)cc2)CC1 | inconclusive: 29.1 µM [falling, single point] | –
10 | COCc1cc(C)nc(OCC(=O)N/N=C\c2cc(C)n(-c3cccc(C(F)(F)F)c3)c2C)c1C#N | inconclusive: 20.6 µM [falling, single point] | –
11 | O=S(=O)(NCC1CCCO1)c1ccc(-c2ccc(Cl)cc2)cc1 (stereo not given) | inconclusive: 29.1 µM [falling, single point] | –
12 | O=C(C[n+]1cccc(CNC(=O)c2ccc(OC(F)F)cc2)c1)c1ccccc1 | inconclusive: 29.1 µM [activator, single point] | –
13 | CN1CCN(CCCNC(=O)c2cc3c(-c4ccc(Cl)cc4)nn(C)c3s2)CC1 | – | inactive: -11.9%
14 | CN(C(=O)CSc1nc2ccc(NC(=O)c3ccco3)cc2s1)c1ccccc1 | inconclusive: 16.4 µM [falling, single point] | –
15 | CC(C)Oc1ccc(S(=O)(=O)N2CCCCC2)cc1NC(=O)C1CCCC1 | – | inactive: -2.98%
16 | O=S(=O)(c1ccc(Br)cc1)c1cnc2ccccc2n1 | – | inactive: -3.84%
17 | CN(C)c1oc(-c2ccc(OCc3ccc(Cl)cc3)cc2)nc1C#N | inconclusive: 0.326 µM [falling, full curve, poor fit] | –
18 | COc1ccc(-c2cc(C(F)(F)F)nc(SCC(=O)NCc3ccco3)n2)cc1OC | – | inactive: -0.506%
19 | CC(C)(C)OC(=O)N1CCC(CC2CC(c3cccc(Br)c3)=NO2)(C(=O)NCC2CCCCC2)CC1 (stereo not given) | inconclusive: 23.1 µM [falling, single point] | –
20 | O=C(CCNS(=O)(=O)c1ccccc1C(F)(F)F)N1CCN(C(c2ccccc2)c2ccccc2)CC1 | inconclusive: 14.6 µM [falling, partial curve] | –

Looked up above:
CC(=O)Nc1ccc(OCC(O)CN2CCN(c3cccc(Cl)c3)CC2)cc1 (stereo not given) – Potency: inconclusive: 1.03 µM [falling, partial curve]
CN(C(=O)CSc1nc2ccc(NC(=O)c3ccco3)cc2s1)c1ccccc1 – Potency: inconclusive: 16.4 µM [falling, single point]
COc1ccc(-c2cc(C(F)(F)F)nc(SCC(=O)NCc3ccco3)n2)cc1OC – activity change, negative = inhibition: inactive: -0.506%

(list continues)

Row | SMILES | Potency | activity change, negative = inhibition
21 | COc1ccc(-c2cc3cccc(OC)c3oc2=O)cc1 | inconclusive: 1.46 µM [activator, partial curve] | –
22 | CC(C)COc1cccc(C(=O)Nc2cc(S(=O)(=O)N3CCOCC3)ccc2N2CCCC2)c1 | inconclusive: 29.1 µM [falling, single point] | –
23 | O=C(c1cc(-c2ccc(Cl)c(Cl)c2)on1)N1CCCCCC1 | inconclusive: 1.84 µM [activator, full curve] | –
24 | N#C/C(=C\C=C\c1ccccc1)c1nc(-c2ccc3c(c2)OCO3)cs1 | – | inactive: 13.5%
25 | Cc1cc2c(cc1S(=O)(=O)N1CCN(c3ccccc3F)CC1)OCC(=O)N2 | inconclusive: 29.1 µM [activator, partial curve, poor fit] | –
26 | CCn1c(SCC(=O)N(C)Cc2ccc(OC)c(F)c2)nc2cc(S(N)(=O)=O)ccc21 | inconclusive: 32.6 µM [falling, single point] | –
27 | C/C=C1\COC(C(=O)NCCN2CCOCC2)(C(F)(F)F)C=C1C=C(C)C (stereo not given) | inconclusive: 0.0046 µM [falling, full curve, poor fit] | –
28 | Cc1nc(-c2ccc(NS(=O)(=O)c3ccccc3)cc2)cs1 | inconclusive: 14.6 µM [falling, partial curve, poor fit] | –
29 | c1ccc2c(c1)[nH]c1c(N3CCSCC3)ncnc12 | inconclusive: 20.6 µM [falling, single point] | –
30 | CCC1=Nc2cc(C(=O)NC3CCCC3)ccc2Sc2ccc(Cl)cc21 | – | inactive: 6.74%
31 | CCCC1CC(C)(c2csc(Nc3ccc(OCC)cc3)n2)OC1=O (stereo not given) | inconclusive: 29.1 µM [falling, single point] | –
32 | O=C(Nc1ccc(Cl)cc1)Nc1ccccc1CC[N+](=O)[O-] | inconclusive: 29.1 µM [falling, single point] | –
33 | COC(=O)Nc1ccc2c(c1)N(C(=O)CCCl)c1ccccc1S2 | – | inactive: -0.781%
34 | Cc1cc2nc3c(=O)n(Cc4ccccc4)c(=O)[nH]c3nc2cc1N | inconclusive: 29.1 µM [falling, single point] | –
35 | O=C(NC(NC(=S)Nc1ccccc1O)C(Cl)(Cl)Cl)c1ccco1 (stereo not given) | inconclusive: 29.1 µM [falling, single point] | –
36 | COc1ccc(S(=O)(=O)N2CCC3(CC2)OCCN3S(=O)(=O)c2cccs2)cc1 | inconclusive: 8.2 µM [falling, partial curve, poor fit] | –
37 | CCc1ccc(NC(=O)c2ccc(CNS(=O)(=O)c3ccc4c(c3)C(C)(C)C(=O)N4C)cc2)cc1 | – | inactive: 26.8%
38 | CCOc1ccc(C(=O)N/N=C/c2cc([N+](=O)[O-])cs2)cc1 | inconclusive: 2.59 µM [falling, partial curve] | –
39 | Cc1cc(N2C(=O)C(=O)/C(=C(/O)c3ccc(Cl)cc3)C2c2cccc(Br)c2)no1 (stereo not given) | inconclusive: 20 µM [falling, partial curve, poor fit] | –
40 | CCOc1cc(N2CCOCC2)c(OCC)cc1NC(=O)CSc1nccc(C)n1 | inconclusive: 29.1 µM [falling, single point] | –
